Measured values as given in the supplement of paper PMC10849652.
The list shows a part of the results.

Amino acid sequences for entries named in this document (tags omitted). A change or cut given only in a name is not applied to a line headed by its entry.
UniProt Q9NUJ1: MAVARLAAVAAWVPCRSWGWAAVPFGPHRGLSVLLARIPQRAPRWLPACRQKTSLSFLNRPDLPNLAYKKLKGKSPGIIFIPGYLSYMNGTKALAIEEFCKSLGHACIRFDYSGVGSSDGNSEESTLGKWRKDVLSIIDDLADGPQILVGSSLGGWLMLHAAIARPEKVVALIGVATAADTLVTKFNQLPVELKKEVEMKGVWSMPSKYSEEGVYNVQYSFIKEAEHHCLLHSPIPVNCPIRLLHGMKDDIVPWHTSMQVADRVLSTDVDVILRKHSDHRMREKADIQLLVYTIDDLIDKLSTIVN
UniProt P16219: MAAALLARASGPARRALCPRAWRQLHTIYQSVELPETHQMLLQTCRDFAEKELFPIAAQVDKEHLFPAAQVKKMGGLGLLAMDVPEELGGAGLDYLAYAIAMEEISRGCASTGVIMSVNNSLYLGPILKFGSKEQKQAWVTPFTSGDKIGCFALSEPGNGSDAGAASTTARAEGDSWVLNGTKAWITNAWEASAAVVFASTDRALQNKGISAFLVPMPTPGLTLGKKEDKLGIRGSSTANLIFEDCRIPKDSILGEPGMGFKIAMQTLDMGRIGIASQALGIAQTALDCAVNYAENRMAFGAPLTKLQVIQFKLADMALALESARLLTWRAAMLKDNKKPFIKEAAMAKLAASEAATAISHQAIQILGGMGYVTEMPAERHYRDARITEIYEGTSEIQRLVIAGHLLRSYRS
UniProt O95870: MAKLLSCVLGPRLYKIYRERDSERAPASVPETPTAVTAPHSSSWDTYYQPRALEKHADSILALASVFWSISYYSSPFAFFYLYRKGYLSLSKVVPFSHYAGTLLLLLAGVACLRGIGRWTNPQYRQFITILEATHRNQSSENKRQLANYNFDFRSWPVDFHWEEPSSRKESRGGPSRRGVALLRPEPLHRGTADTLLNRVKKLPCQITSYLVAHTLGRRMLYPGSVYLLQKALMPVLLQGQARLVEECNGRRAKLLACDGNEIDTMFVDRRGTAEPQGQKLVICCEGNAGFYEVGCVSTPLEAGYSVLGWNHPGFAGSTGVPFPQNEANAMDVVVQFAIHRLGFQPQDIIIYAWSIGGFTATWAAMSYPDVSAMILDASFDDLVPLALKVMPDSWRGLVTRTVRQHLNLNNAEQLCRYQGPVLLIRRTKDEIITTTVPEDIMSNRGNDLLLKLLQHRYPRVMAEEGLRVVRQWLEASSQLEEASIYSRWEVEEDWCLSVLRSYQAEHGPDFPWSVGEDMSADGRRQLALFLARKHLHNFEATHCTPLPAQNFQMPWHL
UniProt Q9H7C9: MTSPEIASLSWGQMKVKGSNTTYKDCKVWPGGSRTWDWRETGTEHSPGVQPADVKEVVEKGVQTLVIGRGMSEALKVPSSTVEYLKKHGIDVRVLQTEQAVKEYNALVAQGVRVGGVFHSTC
UniProt P00519, whole entry, looked up: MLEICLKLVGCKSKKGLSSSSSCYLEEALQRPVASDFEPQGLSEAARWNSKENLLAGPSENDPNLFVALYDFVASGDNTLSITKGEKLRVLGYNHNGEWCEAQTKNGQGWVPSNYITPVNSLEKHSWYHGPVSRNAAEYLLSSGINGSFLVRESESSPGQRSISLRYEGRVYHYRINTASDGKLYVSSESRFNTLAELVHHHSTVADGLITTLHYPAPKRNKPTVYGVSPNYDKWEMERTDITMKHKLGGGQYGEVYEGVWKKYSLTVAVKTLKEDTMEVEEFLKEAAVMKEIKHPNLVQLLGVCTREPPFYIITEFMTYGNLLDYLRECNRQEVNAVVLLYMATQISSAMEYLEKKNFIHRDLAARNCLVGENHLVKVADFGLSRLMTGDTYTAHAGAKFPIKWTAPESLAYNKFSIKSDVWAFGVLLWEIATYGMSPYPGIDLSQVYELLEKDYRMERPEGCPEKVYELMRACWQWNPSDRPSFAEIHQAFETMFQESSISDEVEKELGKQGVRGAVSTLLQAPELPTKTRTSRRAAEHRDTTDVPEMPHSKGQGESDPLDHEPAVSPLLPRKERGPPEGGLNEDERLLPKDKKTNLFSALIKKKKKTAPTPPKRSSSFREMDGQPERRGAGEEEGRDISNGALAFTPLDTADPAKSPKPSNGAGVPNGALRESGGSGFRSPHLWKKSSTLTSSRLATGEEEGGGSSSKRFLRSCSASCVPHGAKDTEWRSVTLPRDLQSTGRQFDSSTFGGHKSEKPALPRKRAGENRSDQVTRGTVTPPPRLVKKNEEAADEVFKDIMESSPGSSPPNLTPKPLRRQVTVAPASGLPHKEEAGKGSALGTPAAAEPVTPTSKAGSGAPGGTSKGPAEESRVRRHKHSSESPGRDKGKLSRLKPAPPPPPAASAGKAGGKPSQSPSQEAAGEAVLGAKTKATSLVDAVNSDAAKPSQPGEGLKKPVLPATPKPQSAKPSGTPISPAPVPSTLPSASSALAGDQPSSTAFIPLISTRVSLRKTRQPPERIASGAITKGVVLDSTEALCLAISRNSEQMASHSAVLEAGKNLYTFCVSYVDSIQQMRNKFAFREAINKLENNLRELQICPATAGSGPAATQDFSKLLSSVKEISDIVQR
UniProt O75027: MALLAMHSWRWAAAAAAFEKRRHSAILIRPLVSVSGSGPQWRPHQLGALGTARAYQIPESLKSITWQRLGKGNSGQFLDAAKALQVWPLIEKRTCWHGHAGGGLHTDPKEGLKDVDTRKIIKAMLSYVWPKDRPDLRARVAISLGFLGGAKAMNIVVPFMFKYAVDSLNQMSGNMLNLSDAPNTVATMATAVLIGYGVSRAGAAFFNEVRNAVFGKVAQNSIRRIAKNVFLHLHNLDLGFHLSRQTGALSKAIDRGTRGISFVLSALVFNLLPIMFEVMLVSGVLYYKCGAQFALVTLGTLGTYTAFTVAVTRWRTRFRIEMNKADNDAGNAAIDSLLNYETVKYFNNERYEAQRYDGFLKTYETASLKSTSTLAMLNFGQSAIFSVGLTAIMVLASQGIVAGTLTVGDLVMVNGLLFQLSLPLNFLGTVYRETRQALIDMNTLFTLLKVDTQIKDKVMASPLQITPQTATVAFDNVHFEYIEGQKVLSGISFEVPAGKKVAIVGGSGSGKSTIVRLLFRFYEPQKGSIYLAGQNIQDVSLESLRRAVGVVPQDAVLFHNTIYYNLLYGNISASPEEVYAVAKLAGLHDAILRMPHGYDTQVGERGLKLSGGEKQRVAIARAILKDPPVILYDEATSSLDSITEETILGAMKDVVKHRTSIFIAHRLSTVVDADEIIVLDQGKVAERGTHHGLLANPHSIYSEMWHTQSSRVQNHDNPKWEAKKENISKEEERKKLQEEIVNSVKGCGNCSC
UniProt P01023, whole entry, looked up: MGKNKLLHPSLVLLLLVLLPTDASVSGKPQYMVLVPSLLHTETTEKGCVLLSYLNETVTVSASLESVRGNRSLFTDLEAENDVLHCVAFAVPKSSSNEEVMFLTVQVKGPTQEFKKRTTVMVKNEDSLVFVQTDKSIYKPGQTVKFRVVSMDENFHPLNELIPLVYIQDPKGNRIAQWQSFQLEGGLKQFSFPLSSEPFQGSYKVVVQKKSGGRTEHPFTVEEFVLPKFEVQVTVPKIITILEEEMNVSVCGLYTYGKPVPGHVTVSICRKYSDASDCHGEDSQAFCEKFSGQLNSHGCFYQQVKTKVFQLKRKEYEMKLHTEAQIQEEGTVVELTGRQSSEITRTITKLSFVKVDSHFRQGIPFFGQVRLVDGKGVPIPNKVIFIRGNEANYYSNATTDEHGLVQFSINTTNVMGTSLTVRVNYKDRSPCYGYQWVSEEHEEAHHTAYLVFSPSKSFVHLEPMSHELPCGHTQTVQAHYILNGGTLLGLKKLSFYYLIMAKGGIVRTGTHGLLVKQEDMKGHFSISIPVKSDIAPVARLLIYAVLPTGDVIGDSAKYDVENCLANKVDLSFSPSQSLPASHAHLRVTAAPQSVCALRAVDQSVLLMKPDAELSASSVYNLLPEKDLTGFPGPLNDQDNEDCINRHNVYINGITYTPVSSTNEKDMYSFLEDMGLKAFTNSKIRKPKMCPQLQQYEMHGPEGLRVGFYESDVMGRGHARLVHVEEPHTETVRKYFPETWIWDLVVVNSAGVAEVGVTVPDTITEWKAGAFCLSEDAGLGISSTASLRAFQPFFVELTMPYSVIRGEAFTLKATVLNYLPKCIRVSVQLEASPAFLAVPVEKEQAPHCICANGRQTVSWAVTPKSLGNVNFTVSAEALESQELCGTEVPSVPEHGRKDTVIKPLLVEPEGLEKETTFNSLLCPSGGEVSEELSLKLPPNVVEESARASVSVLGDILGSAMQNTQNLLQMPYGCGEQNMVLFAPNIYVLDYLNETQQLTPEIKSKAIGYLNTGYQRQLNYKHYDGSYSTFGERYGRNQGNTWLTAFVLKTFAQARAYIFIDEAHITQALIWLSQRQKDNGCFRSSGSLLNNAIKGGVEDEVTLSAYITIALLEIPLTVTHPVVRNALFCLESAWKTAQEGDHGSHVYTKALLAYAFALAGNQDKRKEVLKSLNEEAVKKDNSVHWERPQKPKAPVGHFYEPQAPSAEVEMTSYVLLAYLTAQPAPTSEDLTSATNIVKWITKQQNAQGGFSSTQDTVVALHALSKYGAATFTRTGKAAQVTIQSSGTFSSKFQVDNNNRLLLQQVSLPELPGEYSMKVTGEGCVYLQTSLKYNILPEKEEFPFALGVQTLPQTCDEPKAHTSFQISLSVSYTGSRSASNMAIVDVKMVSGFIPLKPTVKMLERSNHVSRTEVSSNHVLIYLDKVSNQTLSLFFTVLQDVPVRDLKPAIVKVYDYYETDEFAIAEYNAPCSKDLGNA
UniProt P49588, whole entry, looked up: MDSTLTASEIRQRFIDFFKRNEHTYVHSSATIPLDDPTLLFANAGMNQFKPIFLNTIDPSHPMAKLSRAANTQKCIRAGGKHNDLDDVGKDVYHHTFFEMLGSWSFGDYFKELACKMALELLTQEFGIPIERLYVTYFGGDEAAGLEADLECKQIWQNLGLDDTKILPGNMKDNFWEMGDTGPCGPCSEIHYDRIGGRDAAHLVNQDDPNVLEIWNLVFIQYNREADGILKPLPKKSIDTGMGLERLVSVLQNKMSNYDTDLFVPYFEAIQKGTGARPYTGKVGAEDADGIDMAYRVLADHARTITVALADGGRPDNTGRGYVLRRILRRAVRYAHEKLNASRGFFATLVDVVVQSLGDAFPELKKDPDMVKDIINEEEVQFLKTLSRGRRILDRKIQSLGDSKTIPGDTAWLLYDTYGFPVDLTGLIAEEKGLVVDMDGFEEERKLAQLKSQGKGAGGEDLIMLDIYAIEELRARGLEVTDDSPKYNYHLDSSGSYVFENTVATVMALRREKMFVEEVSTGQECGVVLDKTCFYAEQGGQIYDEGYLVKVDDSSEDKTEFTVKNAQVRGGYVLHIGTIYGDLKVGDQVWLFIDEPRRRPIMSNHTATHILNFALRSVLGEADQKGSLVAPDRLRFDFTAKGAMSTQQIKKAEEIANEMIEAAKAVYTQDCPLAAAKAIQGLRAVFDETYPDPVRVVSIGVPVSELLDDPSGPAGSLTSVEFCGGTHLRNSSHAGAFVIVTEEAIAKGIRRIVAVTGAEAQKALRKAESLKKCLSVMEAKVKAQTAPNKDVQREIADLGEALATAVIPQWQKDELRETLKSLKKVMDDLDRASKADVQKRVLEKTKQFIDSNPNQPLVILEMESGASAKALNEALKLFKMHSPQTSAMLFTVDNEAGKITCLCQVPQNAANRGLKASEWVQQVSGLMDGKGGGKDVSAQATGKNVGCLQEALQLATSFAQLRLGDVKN
UniProt Q8IZP0: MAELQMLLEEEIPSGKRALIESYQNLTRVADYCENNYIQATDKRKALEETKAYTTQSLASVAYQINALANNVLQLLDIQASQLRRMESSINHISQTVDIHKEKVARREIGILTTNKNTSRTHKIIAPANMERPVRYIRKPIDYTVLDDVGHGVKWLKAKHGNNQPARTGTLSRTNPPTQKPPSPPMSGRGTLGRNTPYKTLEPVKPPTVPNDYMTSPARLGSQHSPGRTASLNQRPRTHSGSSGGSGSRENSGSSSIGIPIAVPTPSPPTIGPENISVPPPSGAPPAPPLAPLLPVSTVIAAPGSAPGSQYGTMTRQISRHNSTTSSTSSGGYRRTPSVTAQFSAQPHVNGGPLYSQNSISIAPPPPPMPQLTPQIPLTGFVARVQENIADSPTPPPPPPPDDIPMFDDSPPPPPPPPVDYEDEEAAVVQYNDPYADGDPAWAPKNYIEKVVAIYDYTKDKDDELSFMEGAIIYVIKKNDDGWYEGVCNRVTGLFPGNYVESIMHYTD
UniProt Q6PD74: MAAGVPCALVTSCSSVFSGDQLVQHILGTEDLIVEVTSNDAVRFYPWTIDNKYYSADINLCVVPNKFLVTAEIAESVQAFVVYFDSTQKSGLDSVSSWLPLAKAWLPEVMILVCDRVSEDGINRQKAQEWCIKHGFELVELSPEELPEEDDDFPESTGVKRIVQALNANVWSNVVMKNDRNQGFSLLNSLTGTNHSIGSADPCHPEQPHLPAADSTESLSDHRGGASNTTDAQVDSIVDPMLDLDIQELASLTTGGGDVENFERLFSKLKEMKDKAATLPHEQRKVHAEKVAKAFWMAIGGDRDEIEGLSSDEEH

What follows are targets tested with CC(=O)c1cnc2ccc(-c3cc(Cl)c(O)c(Cl)c3)nc2c1N[C@H]1CC[C@H](CN(C)C)CC1 (assay: log2 fold change, soluble protein after heating vs DMSO (PISA); higher = thermal stabilisation; K562 lysate, 10 uM; active = over 0.2 and 3.5 SD of the protein, either way, in both replicates (recomputed)).
Outline: (§1)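 Quantification was by TMTpro 16plex LC-MS/MS with equalised channel sums, applied to the supernatant after 21,000xg for 90 min. Samples were crude K562 extract at 1 mg/mL protein in PBS pH 7.4 with 1 mM MgCl2, treated with 10 μM compound for 30 min, heated for 3 min across 48°C-58°C, pooled and brought to 0.5% NP-40 at 4°C. Values are log-two fold changes in thermal stability relative to solvent controls, from duplicates.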

Target	log2 fold change
A0A096LPI6, A0A096LPI6	inactive: -0.009
ABCB10 (UniProt Q9NRK6)	inactive: 0.015
ABHD10 (UniProt Q9NUJ1)	inactive: 0.01
ABHD17A isoform 2 (UniProt Q96GS6)	inactive: 0.011
ABT1 (UniProt Q9ULW3)	inactive: 0.091
ACO1 (UniProt P21399)	inactive: -0.012
ACADS (UniProt P16219)	inactive: 0.031
ACBD6 (UniProt Q9BR61)	inactive: 0.038
ABCF1 (UniProt Q8NE71)	inactive: -0.009
ABHD16A (UniProt O95870)	inactive: 0.004
AARSD1 isoform 3 (UniProt Q9BTE6)	inactive: 0.013

Each target was assayed with CC(C)(C)Cn1c(N)nc2ccc(-c3[nH]c(C(C)(C)C)nc3-c3ccc(F)cc3)nc21 [ralimetinib] in the same assay as above.
Outline: as §1

Target	log2 fold change
AAK1, A0A096LP25	inactive: -0.031
AAMDC (UniProt Q9H7C9)	inactive: 0.035
ACIN1 (UniProt E7EQT4)	inactive: 0.123
ACCS (UniProt Q96QU6)	inactive: -0.094
A0A0B4J2A0, A0A0B4J2A0	inactive: 0.015
ABL1 isoform 2 (UniProt P00519)	inactive: 0.019
ABITRAM (UniProt Q9NX38)	inactive: 0.001
AACS (UniProt Q86V21)	inactive: 0.06
ABCF2 isoform 2 (UniProt Q9UG63)	inactive: 0.059
ACACA isoform 4 (UniProt Q13085)	inactive: 0.041
ABCB7 isoform 2 (UniProt O75027)	inactive: -0.051
ACADVL isoform 3 (UniProt P49748)	inactive: 0.018
ABCC4 (UniProt O15439)	inactive: 0.019
ABCD3 (UniProt P28288)	inactive: -0.067
ABRAXAS2 (UniProt Q15018)	inactive: 0.023
ACBD3 (UniProt Q9H3P7)	inactive: 0.009
ACIN1 isoform 5 (UniProt Q9UKV3)	inactive: -0.011

Target	log2 fold change
A2M (UniProt P01023)	inactive: -0.018
AARS (UniProt P49588)	inactive: -0.004
ABI1 isoform 9 (UniProt Q8IZP0)	inactive: -0.031
AATF (UniProt Q9NY61)	inactive: 0.027
AAGAB (UniProt Q6PD74)	inactive: 0.088
A0A096LPI6, A0A096LPI6	inactive: 0.021
ABCB10 (UniProt Q9NRK6)	inactive: -0.006
ABHD10 (UniProt Q9NUJ1)	inactive: -0.034
ABHD17A isoform 2 (UniProt Q96GS6)	inactive: 0.039
ABT1 (UniProt Q9ULW3)	inactive: 0.019
ACO1 (UniProt P21399)	inactive: 0.023
ACADS (UniProt P16219)	inactive: 0.004
ACBD6 (UniProt Q9BR61)	inactive: 0.012
ABCF1 (UniProt Q8NE71)	inactive: 0.01
ABHD16A (UniProt O95870)	inactive: 0.029
AARSD1 isoform 3 (UniProt Q9BTE6)	inactive: -0.004
